Test results: US9926581B2, “Fagopyritol synthase genes and uses thereof” (Cornell Research Foundation, Inc., priority 2002, dated 2018)
Where “and” joins values, the source holds several entries; their conditions need not be identical. Equal entries are not always repeated.

Tests used:
soybean explants [1] = test: Soybean explant feeding with 50 mM free cyclitols for one week, soluble carbohydrates in mature seeds; type: in vivo, Glycine max (L.) Merrill cv. Chippewa 64
immature soybean embryos = test: Embryo feeding experiments: cyclitols fed to immature soybean embryos, precocious maturation by slow drying, soluble carbohydrates in axis and cotyledons; type: in vivo, Glycine max (L.) Merrill
buckwheat explants = test: Buckwheat explant feeding with 100 mM cyclitol in 1% sucrose for 5 days, soluble carbohydrates in embryos and leaf disks; type: in vivo, Fagopyrum esculentum; conditions: for Soluble carbohydrates in embryos of seeds from buckwheat explants: replicate values
soybean explants [2] = test: Soybean explant feeding 3 days with 50 mM cyclitol in 1% sucrose, slow drying time course, soluble carbohydrates in axis, cotyledon, seed coat and leaf
[3] = 250 mg fresh weight embryos, before feeding
[4] = after incubation with 30 mM myo-inositol, 100 mM D-chiro-inositol or 100 mM D-pinitol for 24 hours at 22° C.
[5] = 3 days transport of sucrose (1%) and D-chiro-inositol (50 mM), after 2 days slow drying, Rep 1
[6] = 3 days transport of sucrose (1%) and D-chiro-inositol (50 mM), after 2 days slow drying, Rep 2
[7] = 3 days transport of sucrose (1%) and D-chiro-inositol (50 mM), after 4 days slow drying, Rep 1
[8] = 3 days transport of sucrose (1%) and D-chiro-inositol (50 mM), after 4 days slow drying, Rep 2
[9] = 3 days transport of sucrose (1%) and D-chiro-inositol (50 mM), after 14 days slow drying, Rep 1
[10] = 3 days transport of sucrose (1%) and D-chiro-inositol (50 mM), after 14 days slow drying, Rep 2
[11] = 3 days transport of sucrose (1%) and D-chiro-inositol (50 mM), before slow drying, Rep 1
[12] = 3 days transport of sucrose (1%) and D-chiro-inositol (50 mM), before slow drying, Rep 2
[13] = 3 days transport of sucrose (1%) and D-pinitol (50 mM), after 2 days slow drying, Rep 1

CO[C@H]1[C@H](O)[C@@H](O)[C@@H](O)[C@H](O)[C@@H]1O [D-Pinitol, 1D-3-O-methyl-chiro-inositol, reference compound]
appearance of seeds of explants fed the cyclitol (soybean explants [1]; 50 mM cyclitol fed one week, seeds dried): full and round seeds | change in concentration after feeding 50 mM myo-inositol to explants (soybean explants [1]; axis and cotyledon tissue of mature seeds): No significant changes | change after feeding D-pinitol to explants (soybean explants [1]; both axis and cotyledon tissues): quadrupled | initial concentration of cyclitols in axis tissues (immature soybean embryos; [3]): 6.0 mg/g dry weight | initial concentration of cyclitols in cotyledon tissues (immature soybean embryos; [3]): 4.0 mg/g dry weight | increase in concentration of the fed cyclitol in axis (immature soybean embryos; [4]): 6 fold | increase in concentration of the fed cyclitol in cotyledon tissues (immature soybean embryos; [4]): 11 fold | increase in concentration after feeding D-pinitol (immature soybean embryos; axis and cotyledon tissues, concentration series, 14 days precocious maturation): 8 fold | increase in concentration after feeding D-chiro-inositol (immature soybean embryos; axis and cotyledons, concentration series, 14 days precocious maturation): did not increase | Soluble carbohydrates in embryos of seeds from buckwheat explants (buckwheat explants; fed 100 mM D-chiro-inositol in 1% sucrose solution 5 days, 2 days slow drying): 0 μg/embryo | Soluble carbohydrates in embryos of seeds from buckwheat explants (buckwheat explants; fed 100 mM D-chiro-inositol in 1% sucrose solution 5 days, 4 days slow drying): 0 μg/embryo | Soluble carbohydrates in embryos of seeds from buckwheat explants (buckwheat explants; fed 100 mM D-chiro-inositol in 1% sucrose solution 5 days, 7 days slow drying): 0 μg/embryo | Soluble carbohydrates in leaves from buckwheat explants (buckwheat explants; fed 100 mM D-chiro-inositol in 1% sucrose solution, after 1 hour feeding): 0 μg/10 mg leaf disk | Soluble carbohydrates in embryos of seeds from buckwheat explants (buckwheat explants; fed 100 mM D-chiro-inositol in 1% sucrose solution, after 1 day feeding): 0 μg/embryo | Soluble carbohydrates in leaves from buckwheat explants (buckwheat explants; fed 100 mM D-chiro-inositol in 1% sucrose solution, after 24 hours feeding): 0 μg/10 mg leaf disk | Soluble carbohydrates in leaves from buckwheat explants (buckwheat explants; fed 100 mM D-chiro-inositol in 1% sucrose solution, after 72 hours feeding): 0 μg/10 mg leaf disk | Soluble carbohydrates in embryos of seeds from buckwheat explants (buckwheat explants; fed 100 mM D-chiro-inositol in 1% sucrose solution, after 5 days feeding): 0 μg/embryo | Soluble carbohydrates in embryos of seeds from buckwheat explants (buckwheat explants; fed 100 mM D-pinitol in 1% sucrose solution 5 days, 2 days slow drying): 163.47 μg/embryo and 56.90 μg/embryo and 230.83 μg/embryo | Soluble carbohydrates in embryos of seeds from buckwheat explants (buckwheat explants; fed 100 mM D-pinitol in 1% sucrose solution 5 days, 4 days slow drying): 162.97 μg/embryo and 173.51 μg/embryo and 134.07 μg/embryo | Soluble carbohydrates in embryos of seeds from buckwheat explants (buckwheat explants; fed 100 mM D-pinitol in 1% sucrose solution 5 days, 7 days slow drying): 85.34 μg/embryo and 129.52 μg/embryo and 148.04 μg/embryo | Soluble carbohydrates in leaves from buckwheat explants (buckwheat explants; fed 100 mM D-pinitol in 1% sucrose solution, after 1 hour feeding): 2.45 μg/10 mg leaf disk | Soluble carbohydrates in embryos of seeds from buckwheat explants (buckwheat explants; fed 100 mM D-pinitol in 1% sucrose solution, after 1 day feeding): 35.53 μg/embryo | Soluble carbohydrates in leaves from buckwheat explants (buckwheat explants; fed 100 mM D-pinitol in 1% sucrose solution, after 24 hours feeding): 121.45 μg/10 mg leaf disk | Soluble carbohydrates in leaves from buckwheat explants (buckwheat explants; fed 100 mM D-pinitol in 1% sucrose solution, after 72 hours feeding): 64.73 μg/10 mg leaf disk | Soluble carbohydrates in embryos of seeds from buckwheat explants (buckwheat explants; fed 100 mM D-pinitol in 1% sucrose solution, after 5 days feeding): 263.02 μg/embryo and 328.27 μg/embryo and 204.10 μg/embryo | Soluble carbohydrates in embryos of seeds from buckwheat explants (buckwheat explants; fed 100 mM myo-inositol in 1% sucrose solution 5 days, 2 days slow drying): 0 μg/embryo | Soluble carbohydrates in embryos of seeds from buckwheat explants (buckwheat explants; fed 100 mM myo-inositol in 1% sucrose solution 5 days, 4 days slow drying): tr | Soluble carbohydrates in embryos of seeds from buckwheat explants (buckwheat explants; fed 100 mM myo-inositol in 1% sucrose solution 5 days, 7 days slow drying): tr | Soluble carbohydrates in embryos of seeds from buckwheat explants (buckwheat explants; fed 100 mM myo-inositol in 1% sucrose solution, after 1 day feeding): 0 μg/embryo | Soluble carbohydrates in embryos of seeds from buckwheat explants (buckwheat explants; fed 100 mM myo-inositol in 1% sucrose solution, after 5 days feeding): tr and 0 μg/embryo | Soluble carbohydrates in embryos of seeds from buckwheat explants (buckwheat explants; fed 1% sucrose (without cyclitols) solution 5 days, 2 days slow drying): tr (2×) and 0 μg/embryo | Soluble carbohydrates in embryos of seeds from buckwheat explants (buckwheat explants; fed 1% sucrose (without cyclitols) solution 5 days, 4 days slow drying): 0 μg/embryo | Soluble carbohydrates in embryos of seeds from buckwheat explants (buckwheat explants; fed 1% sucrose (without cyclitols) solution 5 days, 7 days slow drying): tr and 0 μg/embryo | Soluble carbohydrates in leaves from buckwheat explants (buckwheat explants; fed 1% sucrose (without cyclitols) solution, after 1 hour feeding): 0 μg/10 mg leaf disk | Soluble carbohydrates in leaves from buckwheat explants (buckwheat explants; fed 1% sucrose (without cyclitols) solution, after 24 hours feeding): 0 μg/10 mg leaf disk | Soluble carbohydrates in leaves from buckwheat explants (buckwheat explants; fed 1% sucrose (without cyclitols) solution, after 72 hours feeding): 0 μg/10 mg leaf disk | Soluble carbohydrates in embryos of seeds from buckwheat explants (buckwheat explants; fed 1% sucrose (without cyclitols) solution, after 5 days feeding): tr and 0 μg/embryo | Accumulation of soluble carbohydrates in soybean axis (soybean explants [2]; [5]): 6.18 μg/axis | Accumulation of soluble carbohydrates in soybean cotyledon (soybean explants [2]; [5]): 140.00 μg/cotyledon | Accumulation of soluble carbohydrates in soybean seed coat (soybean explants [2]; [5]): 6.55 μg/seed coat | Accumulation of soluble carbohydrates in soybean axis (soybean explants [2]; [6]): 7.87 μg/axis | Accumulation of soluble carbohydrates in soybean cotyledon (soybean explants [2]; [6]): 177.82 μg/cotyledon | Accumulation of soluble carbohydrates in soybean seed coat (soybean explants [2]; [6]): 5.97 μg/seed coat | Accumulation of soluble carbohydrates in soybean axis (soybean explants [2]; [7]): 6.21 μg/axis | Accumulation of soluble carbohydrates in soybean cotyledon (soybean explants [2]; [7]): 131.32 μg/cotyledon | Accumulation of soluble carbohydrates in soybean seed coat (soybean explants [2]; [7]): 14.69 μg/seed coat | Accumulation of soluble carbohydrates in soybean axis (soybean explants [2]; [8]): 3.86 μg/axis | Accumulation of soluble carbohydrates in soybean cotyledon (soybean explants [2]; [8]): 171.09 μg/cotyledon | Accumulation of soluble carbohydrates in soybean seed coat (soybean explants [2]; [8]): 10.95 μg/seed coat | Accumulation of soluble carbohydrates in soybean axis (soybean explants [2]; [9]): 7.68 μg/axis | Accumulation of soluble carbohydrates in soybean cotyledon (soybean explants [2]; [9]): 91.50 μg/cotyledon | Accumulation of soluble carbohydrates in soybean seed coat (soybean explants [2]; [9]): 12.79 μg/seed coat | Accumulation of soluble carbohydrates in soybean axis (soybean explants [2]; [10]): 4.13 μg/axis | Accumulation of soluble carbohydrates in soybean cotyledon (soybean explants [2]; [10]): 90.76 μg/cotyledon | Accumulation of soluble carbohydrates in soybean seed coat (soybean explants [2]; [10]): 16.30 μg/seed coat | Accumulation of soluble carbohydrates in soybean axis (soybean explants [2]; [11]): 6.94 μg/axis | Accumulation of soluble carbohydrates in soybean cotyledon (soybean explants [2]; [11]): 175.37 μg/cotyledon | Accumulation of soluble carbohydrates in soybean axis (soybean explants [2]; [12]): 6.11 μg/axis | Accumulation of soluble carbohydrates in soybean cotyledon (soybean explants [2]; [12]): 149.51 μg/cotyledon | Accumulation of soluble carbohydrates in soybean axis (soybean explants [2]; [13]): 22.93 μg/axis | Accumulation of soluble carbohydrates in soybean cotyledon (soybean explants [2]; [13]): 428.40 μg/cotyledon | Accumulation of soluble carbohydrates in soybean seed coat (soybean explants [2]; [13]): 78.06 μg/seed coat | Accumulation of soluble carbohydrates in soybean axis (soybean explants [2]; 3 days transport of sucrose (1%) and D-pinitol (50 mM), after 2 days slow drying, Rep 2): 20.86 μg/axis
